Here are results for one sequence from US20110223202A1 (priority 2007, published 2011).

Where a sequence shows no end group, the ends are not given.

A short description of this series: general procedure: Fmoc solid-phase peptide synthesis; Fmoc-Arg(Pbf)-Rink Amide-MBHA resin; benzotriazol-1-yl-oxytripyrrolidinophosphonium hexafluorophosphate with N-methyl. As to conditions: whole synthesis, analytical reverse phase HPLC.

With GGGRRRRRRYGRKKRRQRRR, the “final HPLC purity” value is reported as “about 95%”.
